Reference: PubChem BioAssay AID1224830 (NIAID, 2016)
Assay: 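Host factors that control LPS-induced TNF expression in human macrophages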 (primary screen). Cell system: human THP-1 monocytic leukaemia cells, TNF dual-luciferase reporter clone, PMA-differentiated to macrophage-like cells. Reagents: siRNA pool against human genes, 50 nM. Timing: LPS for 4 h, given about 3 days after siRNA transfection. Conditions: bacterial LPS (TLR4 ligand), 10 ng/ml. Detection: 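TNF firefly reporter luminescence divided by renilla, normalised to the plate median, then turned into a robust z-score for each replicate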. Reading the numbers: TNF reporter robust z-score: higher = stronger TNF reporter response to LPS. Hit rule: 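a well is active when its z-score exceeds 2.8 or falls below -1.5; control wells carry no call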.
Shown is an unselected part of about 18,000 deposited reagents. About 2,900 of them (16%) were called active. 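Calls are made per well; low scores hint the gene aids the LPS response, high scores that it dampens it.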 Unmarked entries are inactive. Repeated entries: four replicate wells of each siRNA pool. No sequences are given here.

target gene	TNF reporter robust z-score
ORC5 (origin recognition complex subunit 5)	3.38 (active)
ORC5 (origin recognition complex subunit 5)	3.22 (active)
ORC5 (origin recognition complex subunit 5)	0.05
ORC5 (origin recognition complex subunit 5)	0.85
TBC1D24 (TBC1 domain family member 24)	-0.79
TBC1D24 (TBC1 domain family member 24)	1.23
TBC1D24 (TBC1 domain family member 24)	0.29
TBC1D24 (TBC1 domain family member 24)	-0.72
ECRG4 (ECRG4 augurin precursor)	0.06
ECRG4 (ECRG4 augurin precursor)	0.04
ECRG4 (ECRG4 augurin precursor)	0.28
ECRG4 (ECRG4 augurin precursor)	0.33
ANKLE1 (ankyrin repeat and LEM domain containing 1)	-1.2
ANKLE1 (ankyrin repeat and LEM domain containing 1)	0.33
ANKLE1 (ankyrin repeat and LEM domain containing 1)	-0.31
ANKLE1 (ankyrin repeat and LEM domain containing 1)	-0.65
BCAT2 (branched chain amino acid transaminase 2)	2.41
BCAT2 (branched chain amino acid transaminase 2)	3.57 (active)
BCAT2 (branched chain amino acid transaminase 2)	1.94
BCAT2 (branched chain amino acid transaminase 2)	3.14 (active)
CCR1 (C-C motif chemokine receptor 1)	1.18
CCR1 (C-C motif chemokine receptor 1)	1.13
CCR1 (C-C motif chemokine receptor 1)	0.13
CCR1 (C-C motif chemokine receptor 1)	2.02
ASB2 (ankyrin repeat and SOCS box containing 2)	0.81
ASB2 (ankyrin repeat and SOCS box containing 2)	-0.99
ASB2 (ankyrin repeat and SOCS box containing 2)	1.56
ASB2 (ankyrin repeat and SOCS box containing 2)	0.18
MICOS10	-0.14
MICOS10	0.55
MICOS10	0.05
MICOS10	-0.18
H3C1 (H3 clustered histone 1)	1.64
H3C1 (H3 clustered histone 1)	0.31
H3C1 (H3 clustered histone 1)	-0.18
H3C1 (H3 clustered histone 1)	3.67 (active)
NBPF9 (NBPF member 9)	-1.41
NBPF9 (NBPF member 9)	-0.59
NBPF9 (NBPF member 9)	-1.6 (active)
NBPF9 (NBPF member 9)	-0.75
RAB35 (RAB35, member RAS oncogene family)	-0.7
RAB35 (RAB35, member RAS oncogene family)	-0.56
RAB35 (RAB35, member RAS oncogene family)	-1.36
RAB35 (RAB35, member RAS oncogene family)	-0.93
MOCOS (molybdenum cofactor sulfurase)	-1.08
MOCOS (molybdenum cofactor sulfurase)	-0.61
MOCOS (molybdenum cofactor sulfurase)	-0.91
MOCOS (molybdenum cofactor sulfurase)	0.41

8 of these entries, reformatted:
{"target gene":"CCR1 (C-C motif chemokine receptor 1)","TNF reporter robust z-score":2.02}
{"target gene":"ASB2 (ankyrin repeat and SOCS box containing 2)","TNF reporter robust z-score":0.81}
{"target gene":"ASB2 (ankyrin repeat and SOCS box containing 2)","TNF reporter robust z-score":-0.99}
{"target gene":"ASB2 (ankyrin repeat and SOCS box containing 2)","TNF reporter robust z-score":1.56}
{"target gene":"ASB2 (ankyrin repeat and SOCS box containing 2)","TNF reporter robust z-score":0.18}
{"target gene":"MICOS10","TNF reporter robust z-score":-0.14}
{"target gene":"MICOS10","TNF reporter robust z-score":0.55}
{"target gene":"MICOS10","TNF reporter robust z-score":0.05}
